SMILES strings stand for the structures. ± gives the standard deviation of the averaged measurements. The list shows a part of the results. Many values rest on one well or one pass, so single values are uncertain.

This assay concerns RAW 264.7 macrophages infected with S. aureus JE2-lux. Description: host macrophage viability (CellTiter-Fluor) relative to DMSO vehicle; higher = more viable host cells. Particulars: 10 µM; treatment time 4 h; gentamicin 50 µg/ml.
Turning to `O=C(CN1C(=O)S/C(=C\c2ccccc2)C1=O)NCCN1C(=O)CSC1=O`, the host macrophage viability was 118%. Consider `Cc1cc(C)c2sc(NNC(=O)C3COc4ccccc4O3)nc2c1` (stereo not drawn), for which the host macrophage viability turned out to be 107 ± 16%. As for `Cc1nn(-c2ccccc2)c2[nH]c(=O)c(CNC(c3ccccc3)c3ccco3)cc12` (stereo not drawn), the host macrophage viability is 115%. Consider `O=C(Nc1ccc(Cl)cn1)c1ccc(SCCN2CCOCC2)nc1`, for which the host macrophage viability is 110%. As for `COc1ccc2c(C)cc(SCC(=O)Nc3c(C)cccc3C)nc2c1`, the host macrophage viability was 113%. Then `N#Cc1c(NC(=O)CSc2nnc3sc4ccccc4n23)sc2c1CCC2`, with 116%; and `Cc1cc(=O)[nH]c2c(C)cc(S(=O)(=O)Nc3ccc(O)cc3)cc12`, with 132%; and `COc1cc(/C=C(\C#N)c2nc(-c3ccc(F)cc3)cs2)cc([N+](=O)[O-])c1O`, with 76.4%. For `O=C(CN1CCC(n2cnc3cccnc32)CC1)Nc1nccs1` the value was 109%; for `CCn1cc(C(=O)Nc2ccc(F)c(F)c2)c2nn(-c3ccccc3)c(=O)c-2c1`, 97.7%. For `COc1ccc(Cl)cc1S(=O)(=O)Nc1ccc(-c2nnc(-c3ccccc3)o2)cc1` the value was 118%; for `C=CCn1ccn(-c2cccc(Cl)c2)c(=O)c1=O`, 122%; for `Cc1ccccc1-c1nc2n(CC(=O)Nc3nccs3)c(C)cc(=O)n2n1`, 122%.

`Cc1nnc(NC(=O)CSc2nc(-c3ccccc3C)nc3cc(=O)[nH]n23)s1`: the host macrophage viability was found to be 102%. Then `CCOC(=O)c1sc2nc(NC(=O)c3ccc(N(C)C)cc3)sc2c1C`, with 109%; and `CCCN1CCN(c2ncnc3sc(C(=O)NCC4CCCO4)c(C)c23)CC1` (stereo not drawn), with 128%. For `Clc1cccc(-n2ncc3c(NCc4ccco4)ncnc32)c1` the value was 120%. Regarding `Cc1cc(-n2ccnc(NCCc3ccccc3)c2=O)ccc1Br`, the host macrophage viability came to 130%. Then `COc1cc(N2CCn3c(nc4cc(Cl)ccc43)C2)ccc1NS(C)(=O)=O`, with 119%; and `Nc1nc(SCC(=O)NCc2ccc(F)cc2)[nH]c(=O)c1NC(=O)c1ccc(F)c(F)c1`, with 104%; and `CCOC(=O)CSC1=NS(=O)(=O)c2ccccc2N1`, with 118%. For `O=C(CN1C(=O)c2ccccc2S1(=O)=O)NC1=NN(c2ccccc2)C(=O)C1` the value was 128%; for `CCc1nn(-c2ccccc2)c2nc(-c3ccccc3)nc(SCC(=O)NC(C)(C)C)c12`, 98.5%.

Take `O=C(O)COc1ccccc1/C=C1/SC(=S)N(NC(=O)c2ccco2)C1=O`: the host macrophage viability is 81.659 ± 0.0095%. Then `CCOc1cccc(-c2cc(C(=O)N/N=C3/C(=O)Nc4ccccc43)[nH]n2)c1`, with 94.2%; and `O=C(NN1C(=O)CSC1=S)c1c(F)cccc1F`, with 106 ± 18%; and `CCCc1cc(C(=O)NC(c2ccccc2)c2ccnn2C)[nH]n1` (stereo not drawn), with 112%. For `O=C(NCc1cccnc1)c1ccc(OC(F)F)cc1` the value was 125%; for `O=C(NCc1cccnc1)C(=O)NCC1OCCCN1S(=O)(=O)c1ccc(Cl)cc1` (stereo not drawn), 119%; for `CCn1c(C)cc2cc(NS(=O)(=O)c3ccc4[nH]c(=O)[nH]c(=O)c4c3)ccc21`, 117%.

Turning to `Cc1cccc(OCc2nc(-c3ccc4c(c3)[nH]c(=O)c(=O)n4C(C)C)no2)c1`, the host macrophage viability stood at 119%. For `O=C(Nc1nc2ccc(Br)cc2s1)c1ccc(N2C(=O)CCC2=O)cc1` the value was 118%; for `O=C(Nc1ccccc1Cl)c1cccn2c(-c3ccc(F)cc3)nnc12`, 115%.

As to `Cc1nc2ccc(S(=O)(=O)Nc3cccc(-c4nc5cccnc5s4)c3C)cc2s1`, the host macrophage viability was 114 ± 5.2%.

In the case of `Cc1cccc(CSc2ncnc3[nH]cnc23)c1`, the host macrophage viability is 99.8%. Then `Cn1c2ccc(F)cc2c2nnc(SCC(=O)Nc3cccc(O)c3)nc21`, with 98.6%. As to `CN1CCN(c2nc(Nc3cccc(F)c3)c3cnn(-c4ccccc4)c3n2)CC1`, the host macrophage viability is 101%. In the case of `COc1ccc(-c2n[nH]c(SC(CC(=O)NCc3cccnc3)c3ccc(OC)cc3)n2)cc1` (stereo not drawn), the host macrophage viability amounted to 119%. For `O=C(NCCc1c[nH]c2ccccc12)C(=O)NCC1OCCN1C(=O)c1ccc2c(c1)OCO2` (stereo not drawn), the host macrophage viability amounted to 107%. Regarding `COc1ccnc(Cn2nc3c4ccccc4nc(C(C)(C)C)n3c2=O)c1OC`, the host macrophage viability amounted to 89.4%. Consider `Cc1nn(-c2nc(-c3ccc(F)cc3)cs2)c(O)c1CCC(=O)N1CCOCC1`, for which the host macrophage viability amounted to 119%.

As for `CCc1nn2c(=O)cc(CSc3nnc(-c4cccc(C)c4)o3)nc2s1`, the host macrophage viability was 82.1%. In the case of `O=C(NC(c1ccccc1)c1cccnc1)c1cc2c([nH]c1=O)CCCCC2` (stereo not drawn), the host macrophage viability is 111%. For `CC(=O)c1cccc(N/C=C(\C#N)c2nc(-c3cccc4ccccc34)cs2)c1` the value was 131%; for `COC(=O)c1c(NC(=O)CC2Nc3ccccc3NC2=O)sc2c1CCC(C)C2` (stereo not drawn), 124%; for `Cc1nnc(SCC(=O)N2CCCCC2)n(N)c1=O`, 131%. Then `O=C(COc1ccc(Cl)cc1)Nc1nc2ccc3ccccc3c2s1`, with 120%; and `COc1ccc2[nH]c3c(=O)n(CCCCC(=O)NCc4cccnc4)c(=S)[nH]c3c2c1`, with 99.6%. Then `COc1cccc(NC(=O)c2oc3ccccc3c2NC(=O)c2cccc([N+](=O)[O-])c2)c1`, with 118 ± 7.8%; and `O=C(CSc1nccc(O)n1)Nc1ccc(C(=O)NC2CC2)cc1`, with 106%; and `COC(=O)c1c(NC(=O)/C(C#N)=C/c2cccs2)sc(C)c1C`, with 96.6%. As to `C=CCn1c(SCCC(=O)Nc2ccc3c(c2)OCO3)nc2sc3c(c2c1=O)CCCC3`, the host macrophage viability came out at 115%. As to `COc1ccc2nc(N/N=C3/C(=O)N(c4ccccc4)N=C3C)sc2c1`, the host macrophage viability was 99.7%. Consider `Cc1sc2ncnc(Sc3nnnn3-c3ccccc3)c2c1C`, for which the host macrophage viability came out at 111.5 ± 0.29%. Take `NC(=O)c1ccc(NC(=O)C(=O)N2CCC3(CC2)OCCN3S(=O)(=O)c2cccs2)cc1`: the host macrophage viability was 109%. On to `COc1ccc(/N=C/c2c(Nc3ccc(Cl)cc3)nc3c(C)cccn3c2=O)cc1`, for which the host macrophage viability came out at 121%.

As for `Cc1ccc(-c2cc(C(F)(F)F)n3nc(C(=O)NCc4ccco4)nc3n2)cc1`, the host macrophage viability turned out to be 111%. For `CCOc1ccc(-c2ccc(OCCNC(=O)c3sc(-c4ccccc4)nc3C)nn2)cc1` the value was 114%; for `CCOC(=O)c1c(SCC(=O)c2ccc(Cl)cc2)nc(=O)[nH]c1C`, 95%; for `COc1ccccc1CNC(=O)c1sc2nc(-c3ccc(F)cc3)cn2c1C`, 109%. For the compound `Cc1cc(C)cc(Oc2ncnc3oc(C)c(C)c23)c1`, the host macrophage viability is 129%.

As for `COc1ccc(CN(Cc2cc3cc(C)ccc3nc2Cl)C(=O)Nc2ccccc2)cc1`, the host macrophage viability is 109%. For `CCOC(=O)C1CCN(c2cc3c(cc2NC(=O)c2cccc(C)c2)n(C)c(=O)n3C)CC1` the value was 137%. Then `Cc1ccccc1N(CC(=O)NCc1ccc(F)cc1)C(=O)c1ccc(N2CCCC2)nc1`, with 114%.

Regarding `CC(C)Oc1ccc(C(=O)C2=C(O)C(=O)N(Cc3cccnc3)C2c2cccc(O)c2)cc1` (stereo not drawn), the host macrophage viability turned out to be 121%. With `Cc1ccc(NC(=O)CC2Nc3ccc(C(F)(F)F)cc3NC2=O)c(C)c1` (stereo not drawn), the host macrophage viability came out at 132%. For `Cc1nc2c(ccc3nc(Nc4nc5ccc(F)cc5s4)sc32)s1` the value was 118 ± 4.7%.

Turning to `CCn1cc(C(=O)N2CCCC2c2nc(-c3ccncc3)n[nH]2)c(C)n1` (stereo not drawn), the host macrophage viability was found to be 130%.

`COc1ccc(-n2ccnc2SCC(=O)NCc2ccc3c(c2)OCO3)cc1`: the host macrophage viability turned out to be 134%. For `COc1cc2nc(NCCCN3CCCC3=O)n3nc(-c4cccnc4)nc3c2cc1OC` the value was 115%; for `CC(C)n1c(SCC(=O)Nc2cccc(F)c2)nc2c(-c3ccccc3)cn(C)c2c1=O`, 95.6%.

Take `COc1ccc(-c2nc3sc(CCNC(=O)C(=O)N4CCN(C(C)=O)CC4)c(C)n3n2)cc1`: the host macrophage viability stood at 118%. Then `CCOc1ccc(NN=C2C(C)=NN=C2C)c([N+](=O)[O-])c1`, with 99.3%; and `Cc1cccc(-c2nc3scc(CCNC(=O)C(=O)Nc4cccc([N+](=O)[O-])c4)n3n2)c1`, with 102%. As for `CCC1CCCCN1C(=O)CCc1c(C)[nH]c2nc(NCc3ccc(Cl)cc3)nn2c1=O` (stereo not drawn), the host macrophage viability amounted to 118%.

`Cc1ccc2c(c1)NC(=O)c1cc(NS(=O)(=O)c3ccc4c(c3)OCCO4)ccc1O2`: the host macrophage viability came out at 121%.

Turning to `CCOC(=O)c1cnn(-c2ccc(C(=O)Nc3ccccc3OCC)cn2)c1N`, the host macrophage viability came out at 88.8%. For `CCc1ccc2c(c1)c1nnc(SCc3nnc(-c4ccccc4)o3)nc1n2C` the value was 101%; for `O=c1oc2cc(OCC(O)Cn3ccnc3)ccc2c2c1CCC2` (stereo not drawn), 104%. As to `O=C(Nc1sc2c(c1C(=O)NCCc1ccccc1)CCC2)c1cc(-c2cccs2)on1`, the host macrophage viability came out at 141%.

On to `COC(=O)c1ccccc1NC(=O)CSc1nc2ccccc2s1`, for which the host macrophage viability is 107%. Turning to `Oc1c2c(nc3nc(Cc4ccc(Cl)cc4)nn13)CCCC2`, the host macrophage viability worked out at 99.8%. Then `NC(=O)c1ccc(NC(=O)Cn2cc(S(=O)(=O)Cc3ccccc3)c3ccccc32)cc1`, with 119%; and `O=S(=O)(Oc1ccc2oc3ccccc3c2c1)c1cccs1`, with 117%; and `Cc1ccccc1/N=c1\scc(-c2cccs2)n1CCO`, with 104%. Consider `Nn1c(-c2ccncc2)nn2c(=O)c3ccccc3nc12`, for which the host macrophage viability turned out to be 106%. `CC(C)c1ccc2nc3sc(C(=O)N4CC(=O)Nc5ccccc54)c(N)c3cc2c1`: the host macrophage viability turned out to be 100%. For `Cc1cc(C)cc(NC(=O)NCc2ccnc(N3CCCCC3)c2)c1` the value was 126%; for `Clc1cccc(/C=N/Nc2ncnc3[nH]cnc23)c1`, 105%. With `CC(=O)/N=c1\sccn1CC(=O)c1ccc([N+](=O)[O-])cc1`, the host macrophage viability is 102%.

Regarding `O=C(Nc1cccc(Br)c1)c1cccc2nc3ccccc3nc12`, the host macrophage viability was determined as 115%. For `CCCCCCC1C(C#N)=C(N)OC2=C1C(=O)CC(C)(C)C2` (stereo not drawn), the host macrophage viability amounted to 110%.

As to `O=C(CCc1ccccc1)Nc1nc2c(s1)CSc1ccccc1-2`, the host macrophage viability is 107%. As for `O=C(COc1ccc(Cl)cc1Cl)NCC(=O)N/N=C/c1cccs1`, the host macrophage viability stood at 120%. For `Cc1ccn2cc(CCNS(=O)(=O)c3ccc([N+](=O)[O-])cc3)nc2c1`, the host macrophage viability was 128%. With `COc1ccc(CCNC(=O)CSc2ncnc3[nH]ncc23)cc1OC`, the host macrophage viability was 107%. Consider `CCC(=O)Nc1cccnc1-c1ccc(C(=O)Nc2ccc(OC)cc2OC)cc1`, for which the host macrophage viability was 105%. Turning to `Cc1oc2ncnc(N3CCC(C(=O)NCCc4ccccc4Cl)CC3)c2c1C`, the host macrophage viability was 116%. Then `O=C(OC1CCCCC1)c1cc2ccccc2oc1=O`, with 124 ± 13%; and `Cc1ccc(-c2c(C(F)(F)F)nn3c(NCCN(C)C)cc(C)nc23)cc1`, with 106%; and `Cc1ccc(C(=O)CSc2nnc3[nH]c(=O)c(C)nn23)cc1C`, with 113%.

`CC(Cn1cnc2ccccc21)C(=O)N/N=C1/C(=O)Nc2ccccc21` (stereo not drawn): the host macrophage viability came out at 113%.

For the compound `CC(=O)c1csc(NC(=O)c2cc3ncc(C(C)=O)c(C)n3n2)n1`, the host macrophage viability came to 130%.
